Reference: the supplement of paper PMC11451515

Tests used:
Settings in all cases: 48 h
[1] = system: P12-Ichikawa; assay: cell viability relative to DMSO control; higher = less cytotoxic
Method in brief: (§1)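 Viability was expressed as a per-plate percentage of DMSO wells, with cell-free wells as background. Leukemia cells (NOMO1 or SEM at 500 cells/well, P12-Ichikawa at 1000 cells/well) were adapted for at least four passages in each medium and seeded in 1536-well plates (5 μl). Library compounds in DMSO were pin-dosed over an 11-point threefold series from 47 μM to 0.79 nM, and CellTiter-Glo One luminescence was read after 48 h at 37°C.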

[2] = system: SEM cells; assay: as above
Method in brief: as §1

[3] = system: NOMO1; assay: as above
Method in brief: as §1

[4] = system: P12-Ichikawa; assay: AUC of viability dose-response curve (% viability x log10 dose units); higher = less sensitive
Method in brief: (§2)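 Area under the curve was integrated by trapezoidal rule from a log-logistic fit of normalised viability, with curves exceeding full viability scaled and quality-control failures removed. The fit had four parameters over log10 doses. Viability came from CellTiter-Glo One luminescence, normalised per plate to DMSO and cell-free wells, after leukemia cells adapted to each medium (500 or 1000 cells/well, 1536-well plates) were exposed to library compounds in DMSO for 48 h at 37°C. The 11 threefold doses ran from 47 μM to 0.79 nM.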

[5] = system: SEM cells; assay: as above
Method in brief: as §2

[6] = system: NOMO1; assay: as above
Method in brief: as §2

COC(=O)[C@H](CCCNC(=N)N)N[S+](=O)([O-])c1ccc(C)cc1
cell viability [%]
Settings	[1]	[2]	[3]
HPLM + 10% dialyzed FBS, 0.000781 µM	90.4	79.7	83.3
HPLM + 10% dialyzed FBS, 0.00234 µM	100	88.2	92.7
HPLM + 10% dialyzed FBS, 0.00702 µM	96.6	82.6	108
HPLM + 10% dialyzed FBS, 0.0211 µM	101	89.9	107
HPLM + 10% dialyzed FBS, 0.0632 µM	101	90.2	96.8
HPLM + 10% dialyzed FBS, 0.19 µM	102	106	122
HPLM + 10% dialyzed FBS, 0.569 µM	102	108	109
HPLM + 10% dialyzed FBS, 1.71 µM	99.7	101	105
HPLM + 10% dialyzed FBS, 5.12 µM	110	101	92.3
HPLM + 10% dialyzed FBS, 15.4 µM	83.2	28.9	58.3
HPLM + 10% dialyzed FBS, 46.1 µM	86.5	48.1	66.1
RPMI 5 mM glucose + 10% FBS, 0.000781 µM	100	96.4	84.4
RPMI 5 mM glucose + 10% FBS, 0.00234 µM	65	92.8	89.4
RPMI 5 mM glucose + 10% FBS, 0.00702 µM	94.9	98.1	96.5
RPMI 5 mM glucose + 10% FBS, 0.0211 µM	96.9	100	88.5
RPMI 5 mM glucose + 10% FBS, 0.0632 µM	91.8	100	113
RPMI 5 mM glucose + 10% FBS, 0.19 µM	98.1	89.5	111
RPMI 5 mM glucose + 10% FBS, 0.569 µM	106	110	96.3
RPMI 5 mM glucose + 10% FBS, 1.71 µM	102	89.2	90.7
RPMI 5 mM glucose + 10% FBS, 5.12 µM	102	103	92.7
RPMI 5 mM glucose + 10% FBS, 15.4 µM	77.6	35.8	77.6
RPMI 5 mM glucose + 10% FBS, 46.1 µM	83.7	36.9	79.5
RPMI 5 mM glucose + 10% dialyzed FBS, 0.000781 µM	87.1	81	77
RPMI 5 mM glucose + 10% dialyzed FBS, 0.00234 µM	89.2	71.3	84.8
RPMI 5 mM glucose + 10% dialyzed FBS, 0.00702 µM	102	80.3	94
RPMI 5 mM glucose + 10% dialyzed FBS, 0.0211 µM	95.7	87.4	97.5
RPMI 5 mM glucose + 10% dialyzed FBS, 0.0632 µM	101	93.2	96.2
RPMI 5 mM glucose + 10% dialyzed FBS, 0.19 µM	97.1	99.2	87.9
RPMI 5 mM glucose + 10% dialyzed FBS, 0.569 µM	100	99.9	99.6
RPMI 5 mM glucose + 10% dialyzed FBS, 1.71 µM	93.8	92.7	90.7
RPMI 5 mM glucose + 10% dialyzed FBS, 5.12 µM	99.7	96.2	95.7
RPMI 5 mM glucose + 10% dialyzed FBS, 15.4 µM	71.4	30.5	68.2
RPMI 5 mM glucose + 10% dialyzed FBS, 46.1 µM	81.6	34.1	86.5

AUC of viability dose-response curve
Settings	[4]	[5]	[6]
HPLM + 10% dialyzed FBS	466	409	444
RPMI 5 mM glucose + 10% FBS	444	422	444
RPMI 5 mM glucose + 10% dialyzed FBS	445	384	426
